Key:
[1] = target: YHb flavohemoglobin; settings: read-out: Inhibition constant for YHb flavohemoglobin; cited from earlier work
[2] = target: E. coli flavohemoglobin (Hmp) (Escherichia coli, UniProt P24232); experiment: Nitric oxide dioxygenase (NOD) inhibition assay, Hmp; format: biochemical; settings: Nitric oxide dioxygenase inhibition constant Ki, pH 6.5, 37 °C, 100 μM NADH, 1 μM NO, imidazole: Ki of the inhibitor-sensitive phase of a biphasic fit
Protocol: The inhibitor was included in the assay solution before the addition of PROLI-NONOate. Inhibitors were also preincubated in the enzyme stock solutions at the same concentration. […] All inhibition experiments were done using the same enzyme preparations. Each assay at a particular concentration of inhibitor was measured in triplicate or more. […] To determine inhibition constants Ki, rate data obtained at different inhibitor concentrations were fit to the equation for non-competitive inhibition nonlinear regression (Equation (1)) using Graphpad Prism software. (1) v=Vmax/(Km,NO+[NO])1+[I]/Ki

By UniProt entry, the sequences of proteins in these tests, tags left out. Where a name states a change or a piece, a line headed by the entry shows the natural chain unless it says otherwise.
UniProt P24232: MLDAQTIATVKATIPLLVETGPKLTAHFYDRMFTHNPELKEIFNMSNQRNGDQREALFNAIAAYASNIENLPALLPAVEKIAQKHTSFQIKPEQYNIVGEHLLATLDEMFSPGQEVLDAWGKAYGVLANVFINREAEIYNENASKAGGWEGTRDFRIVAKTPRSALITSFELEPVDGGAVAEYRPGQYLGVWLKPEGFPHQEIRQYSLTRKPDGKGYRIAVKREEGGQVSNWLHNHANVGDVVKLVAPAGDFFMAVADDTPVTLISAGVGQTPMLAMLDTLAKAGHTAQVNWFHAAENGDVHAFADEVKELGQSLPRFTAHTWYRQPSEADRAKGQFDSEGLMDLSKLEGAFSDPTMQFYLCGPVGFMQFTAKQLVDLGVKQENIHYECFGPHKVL

## Clc1ccc(COC(Cn2ccnc2)c2ccc(Cl)cc2Cl)c(Cl)c1 (centres unmarked) [Miconazole, miconazole]
[1]
  Ki: ~12 µM
[2]
  Ki: 270 ± 70 nM

Source: PMC11206828, “Catalytic Differences between Flavohemoglobins of Giardia intestinalis and E. coli” (Pathogens, 2024)
